# Experimental data published in the supplement of paper PMC6414424.
# Structures can show the parent of a compound that is named as a salt. ± gives the standard deviation of the averaged measurements. Some of the results follow.
# System: APPdp1-6 iPSC-derived neurons
# Experiment: pThr231Tau/total Tau ratio Z-score vs DMSO vehicle wells; higher = more pThr231Tau relative to total Tau
# Conditions: 5 µM; treatment time 5 days
row,Structure (SMILES),pThr231Tau/total Tau ratio Z-score
1,"COC(=O)C(c1ccccc1)C1CCCCN1 (stereo not drawn) [METHYLPHENIDATE HYDROCHLORIDE, CNS stimulant]",-0.198 ± 1.1
2,CC(=O)OCC1=C(C(=O)O)N2C(=O)[C@@H](N)[C@H]2SC1 [Prestw-424],-1.1 ± 0.096
3,CO[C@]12C[C@@H](COC(=O)c3cncc(Br)c3)CN(C)[C@@H]1Cc1cn(C)c3cccc2c13 [Prestw-147],-0.553 ± 0.56
4,CN(C)C(=S)SSC(=S)N(C)C [THIRAM    Therap cat: antifungal],0.139 ± 1.4
5,"CC(C)C[C@H](CN)CC(=O)O [PREGABALIN, anticonvulsant]",1.5 ± 1.4
6,CC(C)(C)NCC(O)c1ccccc1Cl (stereo not drawn) [Prestw-1352],0.149 ± 0.027
7,C[C@]12Cc3c[nH]nc3C[C@@H]1CC[C@@H]1[C@@H]2CC[C@@]2(C)[C@H]1CC[C@]2(C)O [Prestw-1161],0.971 ± 1.2
8,NC(=O)CN1CCCC1=O [Prestw-537],-1 ± 1.7
9,O=P1(NCCCl)OCCCN1CCCl (stereo not drawn) [Prestw-833],-0.588 ± 1.1
10,CC(C)c1c(CN(C)C(C)Cc2ccccc2)n(C)n(-c2ccccc2)c1=O (stereo not drawn) [Prestw-703],-0.881 ± 0.071
11,Oc1ccc(Cl)cc1 [PARACHLOROPHENOL    Therap cat: topical antibacterial],-1.14 ± 1.1
12,C=C(C)[C@@H]1[C@H]2OC(=O)[C@@H]1[C@]1(O)C[C@H]3O[C@]34C(=O)O[C@H]2[C@]14C [Prestw-652],-0.136 ± 1.4
13,CC(=O)OCC(=O)[C@H]1CC[C@H]2[C@@H]3CC[C@H]4C[C@H](O)CC[C@]4(C)[C@H]3C(=O)C[C@]12C [Prestw-1001],-0.397 ± 0.32
14,NC(=O)C[S+]([O-])C(c1ccccc1)c1ccccc1 (stereo not drawn) [Prestw-1147],0.1 ± 1.6
15,CN1CCN(C(=O)OC2c3nccnc3C(=O)N2c2ccc(Cl)cn2)CC1 (stereo not drawn) [Prestw-1367],0.282 ± 1.3
16,CCN1C[C@]2(COC)[C@H](O)C[C@H](OC)[C@]34C1[C@H]([C@H](OC)[C@H]23)[C@]1(OC(C)=O)[C@H]2[C@@H](OC(=O)c3ccccc3)[C@](O)(C[C@H]24)[C@@H](OC)[C@@H]1O,0.298 ± 1.3
17,Clc1ccc(C(OCCN2CCCCC2)c2ccccc2)cc1 (stereo not drawn) [Prestw-793],-1.63 ± 0.19
18,C[C@@H](CO)NC(=O)[C@@H]1C=C2c3cccc4[nH]cc(c34)C[C@H]2N(C)C1,-0.0849 ± 2.1
19,CC(Cc1ccccc1)NCCC(c1ccccc1)c1ccccc1 (stereo not drawn) [Prestw-560],-1.5 ± 1.5
20,C[C@]12CC[C@H](O)C[C@H]1CC[C@@H]1[C@@H]2C[C@@H](O)[C@]2(C)[C@@H](C3=CC(=O)OC3)CC[C@]12O [Prestw-883],-3.14 ± 0.33
21,Cc1cccc(C)c1NC1=NCCCS1 [Prestw-598],0.231 ± 0.31
22,C=C1[C@@H]2CCC3[C@@](CC[C@@H]4[C@H](C(=O)O)C[C@@H](O[C@@H]5O[C@H](CO)[C@@H](OS(=O)(=O)O)[C@H](OS(=O)(=O)O)[C@H]5OC(=O)CC(C)C)C[C@@]34C)(C2)[C@@H]1O (stereo partly drawn) [Prestw-737],-1.33 ± 0.028
23,CC(=O)OCC1=C(C(=O)O)N2C(=O)[C@@H](NC(=O)CCC[C@@H](N)C(=O)O)[C@H]2SC1,0.615 ± 0.57

# From no. 17 to 18, copied from above:
row,Structure (SMILES),pThr231Tau/total Tau ratio Z-score
17,Clc1ccc(C(OCCN2CCCCC2)c2ccccc2)cc1 (stereo not drawn) [Prestw-793],-1.63 ± 0.19
18,C[C@@H](CO)NC(=O)[C@@H]1C=C2c3cccc4[nH]cc(c34)C[C@H]2N(C)C1,-0.0849 ± 2.1
